PubChem BioAssay AID686943 – Drosophila RNAi Screening Center – 2013
Screen: 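Knockdowns that increase or decrease active ERK after insulin receptor stimulation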 (primary screen). Cells: Drosophila S2R+ haemocyte-like cells expressing YFP-tagged ERK (Rolled). Reagent: long dsRNA against Drosophila genes. Challenge: insulin stimulation versus unstimulated cells; dose and duration not given. Measurement: 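Per-plate z-scores of phospho-ERK immunostaining normalised to YFP-tagged ERK, measured with and without insulin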. Reading the numbers: replicate 1, z-score of dpERK with insulin and replicate 2, z-score of dpERK with insulin: higher = more active ERK per ERK-YFP after insulin; replicate 1, z-score of dpERK under basal conditions: higher = more basal active ERK per ERK-YFP; replicate 1, z-score of ERK-YFP with insulin: higher = more YFP-tagged ERK signal.
The deposit covers about 23,000 reagents; this is a random part of those with a known target gene and a result. 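Extra replicates exist only for a retested subset of genes; insulin dose and duration not given; both raised and lowered dpERK matter.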 Names joined by + are all predicted targets of the reagent. The record does not give: the amount of reagent, the time to read-out.

no.	target	dsRNA	replicate 1, z-score of dpERK with insulin	replicate 2, z-score of dpERK with insulin	replicate 1, z-score of dpERK under basal conditions	replicate 1, z-score of ERK-YFP with insulin
1	CG11961	DRSC06099	0.44	0.85	0.43	0.48
2	ftz-f1	DRSC11347	-1.84	-1.09	-0.38	0.72
3	Mpcp2	DRSC11226	0.78	0.11	0.45	0.99
4	axo	DRSC08116	0.04	1.19	-0.52	0.47
5	axo	DRSC08324	-0.01	-0.33	0.37	0.1
6	axo	DRSC08326	-2.84	0.37	-0.66	1.99
7	axo	DRSC21337	-0.13	0.59	-0.2	0.82
8	COX7AL2	DRSC00099	1.81	0.35	-0.24	-0.81
9	CG14647	DRSC12233	0.41	0.1	0.02	-0.31
10	CG14647	DRSC22497	0.03	0.07	-1.3	1.33
11	Syx5	DRSC03432	3.15	2.1	-0.52	-1.38
12	Clc	DRSC11116	0.19	0	0.75	0.3
13	CG18764	DRSC15391	0.49	0.96	0.69	0.34
14	zormin	DRSC07969	0.27	-0.46	0.37	0.42
15	zormin	DRSC08210	0.12	0.18	-1.32	0.3
16	zormin	DRSC08212	-0.36	0.06	0.06	0.2
17	zormin	DRSC08213	0.32	0.27	-0.79	0.08
18	zormin	DRSC08297	0.04	-0.03	-0.4	-0.28
19	zormin	DRSC08571	0.03	-0.63	0.45	0.48
20	zormin	DRSC22483	-0.19	0.71	1.51	0.12
21	Or63a	DRSC08681	0.44	0.78	4.37	0.63
22	ninaG	DRSC16102	-0.07	0.33	0.13	1.38
23	LanA	DRSC11207	0.38	0.2	-0.85	-0.42
24	Spase22-23	DRSC15857	-0.12	1.93	-2.92	0.28
25	Ccz1	DRSC08439	-0.42	0.13	-0.19	1.98
26	lncRNA:CR42862 + CG33229	DRSC08497	-0.01	0.25	-1.04	0.79
27	CG15412	DRSC00427	0.01	0.38	1.08	-0.8
28	Dph5	DRSC16653	-0.02	0.12	-0.27	-0.09
29	mRpL19	DRSC16367	0.57	0.52	0.13	-0.17
30	mRpL19	DRSC21618	0.52	0.58	-0.55	-0.84
31	GstE10	DRSC06671	0.29	0.08	0.53	0.03
32	faf	DRSC16942	0.58	0.49	0.22	0.65
33	CheA46a	DRSC05184	-0.5	0.75	0.49	0.35
34	CG14005	DRSC02337	-0.01	0.54	0.63	0.35
35	Ndc80	DRSC20221	0.01	-0.32	1.43	-0.44
36	Ndc80	DRSC21726	0.49	-0.37	-0.04	-0.62
37	betaTub97EF	DRSC15666	-0.69	-0.66	1.07	-0.87
38	betaTub97EF	DRSC15667	0.38	-0.25	0.35	0.21
39	betaTub97EF	DRSC15668	0.33	-0.1	0.44	-0.02
